These are yes or no findings as the source states them, for the method shown. Binding seen in cells or lysates may run through a third protein. Some results given as binding are weak or reduced against the parent protein; the word gives no strength. Where a sequence is shown, tags or fusion partners need not be part of it.
T1: Kremen1 (Krm1), full length, Flag-tagged or HA-tagged (UniProt Q99N43)
T1 sequence: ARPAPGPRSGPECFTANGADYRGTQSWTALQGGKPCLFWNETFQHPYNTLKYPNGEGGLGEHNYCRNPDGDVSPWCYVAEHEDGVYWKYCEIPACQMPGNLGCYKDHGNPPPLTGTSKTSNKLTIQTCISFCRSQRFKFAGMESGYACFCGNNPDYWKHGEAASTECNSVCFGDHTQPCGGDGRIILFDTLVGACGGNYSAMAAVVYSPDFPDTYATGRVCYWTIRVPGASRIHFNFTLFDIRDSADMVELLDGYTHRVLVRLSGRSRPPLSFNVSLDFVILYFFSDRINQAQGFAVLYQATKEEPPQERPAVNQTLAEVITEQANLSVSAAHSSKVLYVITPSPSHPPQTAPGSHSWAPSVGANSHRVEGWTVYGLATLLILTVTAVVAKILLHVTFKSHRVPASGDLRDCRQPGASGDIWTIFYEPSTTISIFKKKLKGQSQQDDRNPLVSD


Assays:
[1] = target: T1, Kremen1 (Krm1), full length, Flag-tagged or HA-tagged; test: co-IP; HEK293T cells co-transfected, lysed after 24 h in 25 mM Tris pH7.4, 150 mM NaCl, 5 mM EDTA, 1% Triton-X100, 10% Glycerol; anti-Flag immunoprecipitation (Dynabeads proteinG), anti-HA western blot
[2] = target: T1, Kremen1 (Krm1), full length, Flag-tagged or HA-tagged; test: co-IP; competition: HEK293T cells transfected with Flag-Krm1, HA-Krm1 and either GFP, LRP6, Krm2 or EpCAM; anti-Flag immunoprecipitation, anti-HA western blot
[3] = target: T1, Kremen1 (Krm1), full length, Flag-tagged or HA-tagged; test: co-IP; competition: HEK293T cells transfected with Flag-Krm1, HA-Krm1 and either GFP or Dkk1; anti-Flag immunoprecipitation, anti-HA western blot

binding [1] | binding [2] | binding [3] | Binder
binds | – | – | HA-Krm1secECD, secreted ectodomain of Krm1 (lacks the transmembrane and intracellular domains) (domain or fragment, UniProt Q99N43 21-392, looked up) RPAPGPRSGPECFTANGADYRGTQSWTALQGGKPCLFWNETFQHPYNTLKYPNGEGGLGEHNYCRNPDGDVSPWCYVAEHEDGVYWKYCEIPACQMPGNLGCYKDHGNPPPLTGTSKTSNKLTIQTCISFCRSQRFKFAGMESGYACFCGNNPDYWKHGEAASTECNSVCFGDHTQPCGGDGRIILFDTLVGACGGNYSAMAAVVYSPDFPDTYATGRVCYWTIRVPGASRIHFNFTLFDIRDSADMVELLDGYTHRVLVRLSGRSRPPLSFNVSLDFVILYFFSDRINQAQGFAVLYQATKEEPPQERPAVNQTLAEVITEQANLSVSAAHSSKVLYVITPSPSHPPQTAPGSHSWAPSVGANSHRVEGWT
binds | – | – | HA-Krm2, full-length Kremen2 (receptor, UniProt Q8K1S7 25-461) GSLHSPGLSECFQVNGADYRGHQNYTGPRGAGRPCLFWDQTQQHSYSSASDPQGRWGLGAHNFCRNPDGDVQPWCYVAETEEGIYWRYCDIPTCHMPGYLGCFVDSGAPPALSGPSGTSTKLTVQVCLRFCRMKGYQLAGVEAGYACFCGSESDLARGRPAPATDCDQICFGHPGQLCGGDGRLGIYEVSVGSCQGNWSAPQGVIYSPDFPDEYGPDRNCSWVLGQLGAVLELTFRLFELADSRDRLELRDVSSGNLLRAFDGAHPPPPGPLRLRTAALLLTFRSDARGHAQGFALTYRGLQDTVEGRASPEDSTESLAGDPDGANASCSPKPGAAQASIGARVFSTVTAFSVLLLLLLSLLRLLRRRSCLLAPGKGSLAMGPSRGPGRSWAVWYRRPRGVALPCPPGDSQAEGPAAGYRPLSASSQSSLRSLVSAL
– | binds | – | full-length untagged Krm2 (receptor, UniProt Q8K1S7 25-461) GSLHSPGLSECFQVNGADYRGHQNYTGPRGAGRPCLFWDQTQQHSYSSASDPQGRWGLGAHNFCRNPDGDVQPWCYVAETEEGIYWRYCDIPTCHMPGYLGCFVDSGAPPALSGPSGTSTKLTVQVCLRFCRMKGYQLAGVEAGYACFCGSESDLARGRPAPATDCDQICFGHPGQLCGGDGRLGIYEVSVGSCQGNWSAPQGVIYSPDFPDEYGPDRNCSWVLGQLGAVLELTFRLFELADSRDRLELRDVSSGNLLRAFDGAHPPPPGPLRLRTAALLLTFRSDARGHAQGFALTYRGLQDTVEGRASPEDSTESLAGDPDGANASCSPKPGAAQASIGARVFSTVTAFSVLLLLLLSLLRLLRRRSCLLAPGKGSLAMGPSRGPGRSWAVWYRRPRGVALPCPPGDSQAEGPAAGYRPLSASSQSSLRSLVSAL
binds | binds | binds | Kremen1 (Krm1), full length, Flag-tagged or HA-tagged (receptor, UniProt Q99N43 20-473, looked up, Kremen1 (Krm1), transmembrane receptor, full length; Two differently tagged copies of the same full-length protein (Flag-Krm1, HA-Krm1), each with ONE tag, written as one molecule for the self-association; In rows with truncated Krm1 or with Krm2 the Flag-tagged copy is the bait; Vector pCAG-IRES-EGFP or pCS2; also called Flag-Krm1; HA-Krm1; source: HEK293T, transfected, in lysate; not shown: …) ARPAPGPRSGPECFTANGADYRGTQSWTALQGGKPCLFWNETFQHPYNTLKYPNGEGGLGEHNYCRNPDGDVSPWCYVAEHEDGVYWKYCEIPACQMPGNLGCYKDHGNPPPLTGTSKTSNKLTIQTCISFCRSQRFKFAGMESGYACFCGNNPDYWKHGEAASTECNSVCFGDHTQPCGGDGRIILFDTLVGACGGNYSAMAAVVYSPDFPDTYATGRVCYWTIRVPGASRIHFNFTLFDIRDSADMVELLDGYTHRVLVRLSGRSRPPLSFNVSLDFVILYFFSDRINQAQGFAVLYQATKEEPPQERPAVNQTLAEVITEQANLSVSAAHSSKVLYVITPSPSHPPQTAPGSHSWAPSVGANSHRVEGWTVYGLATLLILTVTAVVAKILLHVTFKSHRVPASGDLRDCRQPGASGDIWTIFYEPSTTISIFKKKLKGQSQQDDRNPLVSD
binds | – | – | HA-Krm2secECD, secreted ectodomain of Krm2 (lacks the transmembrane and intracellular domains) (domain or fragment, UniProt Q8K1S7 25-363) GSLHSPGLSECFQVNGADYRGHQNYTGPRGAGRPCLFWDQTQQHSYSSASDPQGRWGLGAHNFCRNPDGDVQPWCYVAETEEGIYWRYCDIPTCHMPGYLGCFVDSGAPPALSGPSGTSTKLTVQVCLRFCRMKGYQLAGVEAGYACFCGSESDLARGRPAPATDCDQICFGHPGQLCGGDGRLGIYEVSVGSCQGNWSAPQGVIYSPDFPDEYGPDRNCSWVLGQLGAVLELTFRLFELADSRDRLELRDVSSGNLLRAFDGAHPPPPGPLRLRTAALLLTFRSDARGHAQGFALTYRGLQDTVEGRASPEDSTESLAGDPDGANASCSPKPGAAQAS
– | – | binds | Dickkopf1 (Dkk1) (ligand, UniProt O54908 32-272) TLNSVLINSNAIKNLPPPLGGAGGQPGSAVSVAPGVLYEGGNKYQTLDNYQPYPCAEDEECGSDEYCSSPSRGAAGVGGVQICLACRKRRKRCMRHAMCCPGNYCKNGICMPSDHSHFPRGEIEESIIENLGNDHNAAAGDGYPRRTTLTSKIYHTKGQEGSVCLRSSDCAAGLCCARHFWSKICKPVLKEGQVCTKHKRKGSHGLEIFQRCYCGEGLACRIQKDHHQASNSSRLHTCQRH

— publication PMC6494814, “Kremen1-induced cell death is regulated by homo- and heterodimerization” (Cell Death Discovery, 2019)
